The target of assay [1] is Glc7 (yeast protein phosphatase 1), recombinant His10-SUMO-Glc7 (S. cerevisiae) (UniProt P32598). The assay can be described thus: crystal structure; chimeric protein Glc7–Ref2_(348-406)–GSGSG–2x(SPSYSPT) on one chain; 40 % 1,4-butanediol, 0.1 M Tris-HCl pH 8.5; 1.85 Å; both purified.
For assay [2] the target is unchanged. Description: SEC; 5 μM Glc7 with 10 μM Ref2 C-terminal truncations in 50 μl, Superdex 200 Increase 3.2/300; co-migration on SDS-PAGE (Figure S10A); both purified. (In gel filtration, larger molecules generally elute earlier.)

The chains behind the UniProt entries cited, without tags or fusion partners.
UniProt P32598: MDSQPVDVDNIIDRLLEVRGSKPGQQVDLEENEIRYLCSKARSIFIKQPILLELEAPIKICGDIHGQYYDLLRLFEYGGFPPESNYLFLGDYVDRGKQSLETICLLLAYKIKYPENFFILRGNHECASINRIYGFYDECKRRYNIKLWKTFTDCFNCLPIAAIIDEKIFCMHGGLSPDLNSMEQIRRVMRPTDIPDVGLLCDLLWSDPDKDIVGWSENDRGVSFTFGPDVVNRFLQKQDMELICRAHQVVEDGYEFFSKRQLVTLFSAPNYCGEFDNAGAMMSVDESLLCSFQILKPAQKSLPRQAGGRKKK

Results are given in words; binding and its absence hold for the method and conditions named. Some binding calls cover weakened binding; strength is not graded here.

B1: Ref2 residues 348–406 (domain or fragment, UniProt P42073 348-406)
chain: ISVQDSNVQSILRNGKPKKARISSIKFLDDSQLIKVYGDDLSNQGLQVSPTQLKKILKP
B1: the binding entry in assay [1] and in assay [2] was “binds” in each case.

(Values after paper PMC10783616 (Molecular Cell, 2022).)
